Results: paper PMC10551893
Numbering of substitutions follows the chain as printed. No constants are given. Whether binding was seen depends on the method and setting. Binding seen in cells or lysates may run through a third protein. Some entries that bind do so weakly or less than the wild type. For part of these data: Tags and fused reporters may be left off the sequences shown.

Chains of the proteins cited; added tags and fusions are not shown.
UniProt P63208: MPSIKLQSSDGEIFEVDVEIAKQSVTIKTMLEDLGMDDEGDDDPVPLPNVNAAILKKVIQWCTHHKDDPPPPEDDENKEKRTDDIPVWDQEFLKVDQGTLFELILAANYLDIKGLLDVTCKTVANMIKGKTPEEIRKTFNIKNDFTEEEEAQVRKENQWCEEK
UniProt Q9Y297: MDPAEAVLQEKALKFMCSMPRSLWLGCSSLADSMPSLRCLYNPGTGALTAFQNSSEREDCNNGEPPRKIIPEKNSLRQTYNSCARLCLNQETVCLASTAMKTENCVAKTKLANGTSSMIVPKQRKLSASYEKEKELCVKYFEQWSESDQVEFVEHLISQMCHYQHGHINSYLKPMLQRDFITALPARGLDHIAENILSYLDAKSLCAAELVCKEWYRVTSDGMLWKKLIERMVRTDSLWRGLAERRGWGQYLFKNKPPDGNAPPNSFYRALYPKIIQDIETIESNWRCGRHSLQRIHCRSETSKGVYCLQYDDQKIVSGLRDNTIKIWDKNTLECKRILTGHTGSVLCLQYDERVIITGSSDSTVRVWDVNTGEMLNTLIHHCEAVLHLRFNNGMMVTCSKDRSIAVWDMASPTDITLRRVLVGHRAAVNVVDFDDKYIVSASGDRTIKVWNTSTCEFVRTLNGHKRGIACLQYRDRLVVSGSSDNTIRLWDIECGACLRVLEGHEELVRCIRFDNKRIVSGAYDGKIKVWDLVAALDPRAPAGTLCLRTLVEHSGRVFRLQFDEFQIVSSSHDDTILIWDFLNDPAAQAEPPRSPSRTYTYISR

Tests used:
[1] = molecular target: T1, HA-NRF2-S4A4 (S344A/S347A/S351A/S356A) (human) (UniProt Q16236); test: co-IP; anti-HA affinity gel added to lysates of NRF2−/− cells transfected with HA-NRF2-WT or HA-NRF2-S4A4, 5 h at 4 °C; Western blot of β-TrCP, β-TrCP-343aa and HA
T1 sequence: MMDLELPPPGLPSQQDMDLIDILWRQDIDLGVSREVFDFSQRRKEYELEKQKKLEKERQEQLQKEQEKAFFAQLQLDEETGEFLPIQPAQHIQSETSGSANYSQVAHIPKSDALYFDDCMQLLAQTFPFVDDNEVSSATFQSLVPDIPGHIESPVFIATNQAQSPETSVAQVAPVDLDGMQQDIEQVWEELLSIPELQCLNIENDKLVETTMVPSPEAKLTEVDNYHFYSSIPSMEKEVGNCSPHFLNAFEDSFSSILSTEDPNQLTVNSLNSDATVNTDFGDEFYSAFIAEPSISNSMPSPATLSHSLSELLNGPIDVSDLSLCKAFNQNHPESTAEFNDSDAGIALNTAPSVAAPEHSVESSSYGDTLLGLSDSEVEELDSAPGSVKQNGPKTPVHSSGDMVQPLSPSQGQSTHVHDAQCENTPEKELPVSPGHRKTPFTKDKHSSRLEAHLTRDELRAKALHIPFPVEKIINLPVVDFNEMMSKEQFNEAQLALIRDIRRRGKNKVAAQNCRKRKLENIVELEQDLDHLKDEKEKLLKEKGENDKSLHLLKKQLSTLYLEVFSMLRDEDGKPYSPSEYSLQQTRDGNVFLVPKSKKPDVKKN

[2] = molecular target: SKP1 (human (endogenous in BT474-TR and SKBR3-TR)) (UniProt P63208); test: co-IP; anti-SKP1 antibody and protein A/G magnetic beads added to lysates of BT474-TR and SKBR3-TR cells, 5 h at 4 °C; Western blot of SKP1, β-TrCP and β-TrCP-343aa; endogenous proteins
[3] = molecular target: T2, NRF2 (human (endogenous in BT474-TR and SKBR3-TR)) (UniProt Q16236); test: co-IP; anti-NRF2 antibody and protein A/G magnetic beads added to lysates of BT474-TR and SKBR3-TR cells, 5 h at 4 °C; endogenous proteins; also in circ-β-TrCP-silenced cells transfected with circ-β-TrCP vectors (wild type or start codon mutant)
T2 sequence: T1 sequence with A344S, A347S, A351S, A356S

In the case of β-TrCP (from UniProt Q9Y297 1-605), the binding [1] is reported as “no binding”, the binding [2] is reported as “binds” and the binding [3] is reported as “binds”.
